Article doi:10.1101/2025.03.03.641315

T1: GFP-TBC1D19 (stably expressed in RPE-1 cells) (UniProt Q8N5T2)
T1 sequence: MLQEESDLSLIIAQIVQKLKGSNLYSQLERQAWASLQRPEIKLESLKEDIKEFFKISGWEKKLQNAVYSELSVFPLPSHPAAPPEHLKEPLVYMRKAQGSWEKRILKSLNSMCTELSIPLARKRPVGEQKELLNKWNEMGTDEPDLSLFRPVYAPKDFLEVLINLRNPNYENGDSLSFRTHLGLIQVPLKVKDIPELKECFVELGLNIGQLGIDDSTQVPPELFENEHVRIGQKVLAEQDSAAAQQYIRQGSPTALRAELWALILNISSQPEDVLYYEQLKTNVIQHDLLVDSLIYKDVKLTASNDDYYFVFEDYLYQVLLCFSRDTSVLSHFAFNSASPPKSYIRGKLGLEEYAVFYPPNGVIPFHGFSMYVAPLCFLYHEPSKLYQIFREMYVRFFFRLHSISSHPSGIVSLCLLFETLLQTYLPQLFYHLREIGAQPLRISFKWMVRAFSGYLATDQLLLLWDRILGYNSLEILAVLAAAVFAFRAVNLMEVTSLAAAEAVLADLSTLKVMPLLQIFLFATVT

B1: LRRC49/CSTPP2 (protein, UniProt Q8IUZ0 1-686)
chain: MIPGKYRSVSGRAANNVNCGLHLVIQTSSLPEKNKVEFKLNKDTSSFPGRLLQHDLERNYSSRQGDHINLVSSSLSSFPILQRSSEEKILYSDRLSLERQKLTVCPIINGEDHLRLLNFQHNFITRIQNISNLQKLISLDLYDNQIEEISGLSTLRCLRVLLLGKNRIKKISNLENLKSLDVLDLHGNQITKIENINHLCELRVLNLARNFLSHVDNLNGLDSLTELNLRHNQITFVRDVDNLPCLQHLFLSFNNISSFDSVSCLADSSSLSDITFDGNPIAQESWYKHTVLQNMMQLRQLDMKRITEEERRMASVLAKKEEEKKRESHKQSLLKEKKRLTINNVARQWDLQQQRVANIATNEDRKDSDSPQDPCQIDGSTLSAFPEETGPLDSGLNNALQGLSVIDTYLVEVDGDTLSLYGSGALESLDRNWSVQTAGMITTVSFTFIEFDEIVQVLPKLKIKFPNSLHLKFKETNLVMLQQFNALAQLRRIDQLTIDPQGNPVVNFTLWKYYVLFRLSHFSMQKINGTEVTQNDMIMAERLFGILAHVASSELPQYRLISILGDARKKQFRYLLESKGKKPGIINEENNDSKRLVGENTNRATLNYTTRDFYNEKLEEIKEKKKFCKTYIEDLVKEATEINMKNEALQKLWPQMFIELVRDAVIEIRNKNSYMKLCLQQITDQK
B2: NICN1 (protein, UniProt Q9BSH3 1-213)
chain: MSRVLVPCHVKGSVALQVGDVRTSQGRPGVLVIDVTFPSVAPFELQEITFKNYYTAFLSIRVRQYTSAHTPAKWVTCLRDYCLMPDPHSEEGAQEYVSLFKHQMLCDMARISELRLILRQPSPLWLSFTVEELQIYQQGPKSPSVTFPKWLSHPVPCEQPALLREGLPDPSRVSSEVQQMWALTEMIRASHTSARIGRFDVDGCYDLNLLSYT
B3: TPGS1 (protein, UniProt Q6ZTW0 1-290)
chain: MAAVEKRRQAVPPPAGFTDSGRQSVSRAAGAAESEEDFLRQVGVTEMLRAALLKVLEARPEEPIAFLAHYFENMGLRSPVNGGAGEPPGQLLLQQQRLGRALWHLRLAHHSQRAAFNNNVSVAYECLSAGGRRKRPGLDGRTYSELLRRICRDGQAPEEVVAPLLRKVQCRDHEAVPLSVFRAGTLTCFVLLEFVARAGALFQLLEDSAAAVADRRVGQAVLDTLEGALQASDAAAPARFLEAGSRLGPDSLALALDRAVGGRRPSAPMTREEFLERAAALFIAKVKPVG
B4: C11orf49/CSTPP1 (protein, UniProt Q9H6J7 1-331)
chain: MLSPERLALPDYEYLAQRHVLTYMEDAVCQLLENREDISQYGIARFFTEYFNSVCQGTHILFREFSFVQATPHNRVSFLRAFWRCFRTVGKNGDLLTMKEYHCLLQLLCPDFPLELTQKAARIVLMDDAMDCLMSFSDFLFAFQIQFYYSEFLDSVAAIYEDLLSGKNPNTVIVPTSSSGQHRQRPALGGAGTLEGVEASLFYQCLENLCDRHKYSCPPPALVKEALSNVQRLTFYGFLMALSKHRGINQALGALPDKGDLMHDPAMDEELERLLAQVPGLVNSVTASPEASCLPSRTPPRVGSPWRPLHHSRKVDGESDGSTEETDESET
B5: TPGS2 (protein, UniProt Q68CL5 1-300)
chain: MEEEASSPGLGCSKPHLEKLTLGITRILESSPGVTEVTIIEKPPAERHMISSWEQKNNCVMPEDVKNFYLMTNGFHMTWSVKLDEHIIPLGSMAINSISKLTQLTQSSMYSLPNAPTLADLEDDTHEASDDQPEKPHFDSRSVIFELDSCNGSGKVCLVYKSGKPALAEDTEIWFLDRALYWHFLTDTFTAYYRLLITHLGLPQWQYAFTSYGISPQAKQWFSMYKPITYNTNLLTEETDSFVNKLDPSKVFKSKNKIVIPKKKGPVQPAGGQKGPSGPSGPSTSSTSKSSSGSGNPTRK

The molecules below were run against T1, GFP-TBC1D19 (stably expressed in RPE-1 cells) (assay: affinity purification with mass spectrometry).

| Molecule | binding |
| --- | --- |
| TTLL1 (from UniProt O95922 1-423) | binds |
| B1 | binds |
| B2 | binds |
| B3 | binds |
| B4 | binds |
| B5 | no binding |

These are yes or no findings as the source states them, for the method shown. In cells and extracts the contact can be indirect. These calls come from enrichment with a bait or labelling near it, and not all partners need be listed. A no says only that the protein was not detected with the bait. Tags and fused reporters may be left off the sequences shown.
